Results: the supplement of paper PMC12819154, “High-throughput peptide-centric local stability assay extends protein–ligand identification to membrane proteins, tissues and bacteria” (Nature Structural & Molecular Biology, 2025)
This is one part of the list. Most values lie at the level of the controls, where differences are scatter.

Amino acid sequences for entries named in this document (tags omitted). A change or cut given only in a name is not applied to a line headed by its entry.
UniProt O60256: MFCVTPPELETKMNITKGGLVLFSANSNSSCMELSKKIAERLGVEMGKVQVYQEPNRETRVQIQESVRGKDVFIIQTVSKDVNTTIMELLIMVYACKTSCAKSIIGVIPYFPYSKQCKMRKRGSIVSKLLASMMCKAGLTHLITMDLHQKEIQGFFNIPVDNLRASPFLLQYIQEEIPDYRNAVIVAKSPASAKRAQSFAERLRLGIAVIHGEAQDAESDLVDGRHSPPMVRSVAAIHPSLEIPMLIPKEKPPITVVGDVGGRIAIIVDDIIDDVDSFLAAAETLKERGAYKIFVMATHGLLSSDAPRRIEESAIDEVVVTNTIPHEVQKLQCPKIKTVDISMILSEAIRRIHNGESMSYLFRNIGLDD
UniProt O60826, whole entry: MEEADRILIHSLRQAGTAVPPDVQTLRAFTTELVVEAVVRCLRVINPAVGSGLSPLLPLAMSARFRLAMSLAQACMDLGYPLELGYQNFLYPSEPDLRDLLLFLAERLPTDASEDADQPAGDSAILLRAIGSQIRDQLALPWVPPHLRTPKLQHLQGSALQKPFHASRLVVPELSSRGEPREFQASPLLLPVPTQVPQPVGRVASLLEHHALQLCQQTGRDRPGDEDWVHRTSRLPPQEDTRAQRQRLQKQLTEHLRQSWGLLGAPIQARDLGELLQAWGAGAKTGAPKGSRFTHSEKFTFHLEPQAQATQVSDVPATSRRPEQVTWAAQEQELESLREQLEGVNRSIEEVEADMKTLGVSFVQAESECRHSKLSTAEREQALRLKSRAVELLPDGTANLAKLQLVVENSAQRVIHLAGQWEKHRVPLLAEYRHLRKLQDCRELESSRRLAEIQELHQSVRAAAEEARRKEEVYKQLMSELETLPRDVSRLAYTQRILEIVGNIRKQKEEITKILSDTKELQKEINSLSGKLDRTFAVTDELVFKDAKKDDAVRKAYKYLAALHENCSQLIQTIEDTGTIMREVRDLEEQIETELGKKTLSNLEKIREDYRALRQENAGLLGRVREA
UniProt O15417: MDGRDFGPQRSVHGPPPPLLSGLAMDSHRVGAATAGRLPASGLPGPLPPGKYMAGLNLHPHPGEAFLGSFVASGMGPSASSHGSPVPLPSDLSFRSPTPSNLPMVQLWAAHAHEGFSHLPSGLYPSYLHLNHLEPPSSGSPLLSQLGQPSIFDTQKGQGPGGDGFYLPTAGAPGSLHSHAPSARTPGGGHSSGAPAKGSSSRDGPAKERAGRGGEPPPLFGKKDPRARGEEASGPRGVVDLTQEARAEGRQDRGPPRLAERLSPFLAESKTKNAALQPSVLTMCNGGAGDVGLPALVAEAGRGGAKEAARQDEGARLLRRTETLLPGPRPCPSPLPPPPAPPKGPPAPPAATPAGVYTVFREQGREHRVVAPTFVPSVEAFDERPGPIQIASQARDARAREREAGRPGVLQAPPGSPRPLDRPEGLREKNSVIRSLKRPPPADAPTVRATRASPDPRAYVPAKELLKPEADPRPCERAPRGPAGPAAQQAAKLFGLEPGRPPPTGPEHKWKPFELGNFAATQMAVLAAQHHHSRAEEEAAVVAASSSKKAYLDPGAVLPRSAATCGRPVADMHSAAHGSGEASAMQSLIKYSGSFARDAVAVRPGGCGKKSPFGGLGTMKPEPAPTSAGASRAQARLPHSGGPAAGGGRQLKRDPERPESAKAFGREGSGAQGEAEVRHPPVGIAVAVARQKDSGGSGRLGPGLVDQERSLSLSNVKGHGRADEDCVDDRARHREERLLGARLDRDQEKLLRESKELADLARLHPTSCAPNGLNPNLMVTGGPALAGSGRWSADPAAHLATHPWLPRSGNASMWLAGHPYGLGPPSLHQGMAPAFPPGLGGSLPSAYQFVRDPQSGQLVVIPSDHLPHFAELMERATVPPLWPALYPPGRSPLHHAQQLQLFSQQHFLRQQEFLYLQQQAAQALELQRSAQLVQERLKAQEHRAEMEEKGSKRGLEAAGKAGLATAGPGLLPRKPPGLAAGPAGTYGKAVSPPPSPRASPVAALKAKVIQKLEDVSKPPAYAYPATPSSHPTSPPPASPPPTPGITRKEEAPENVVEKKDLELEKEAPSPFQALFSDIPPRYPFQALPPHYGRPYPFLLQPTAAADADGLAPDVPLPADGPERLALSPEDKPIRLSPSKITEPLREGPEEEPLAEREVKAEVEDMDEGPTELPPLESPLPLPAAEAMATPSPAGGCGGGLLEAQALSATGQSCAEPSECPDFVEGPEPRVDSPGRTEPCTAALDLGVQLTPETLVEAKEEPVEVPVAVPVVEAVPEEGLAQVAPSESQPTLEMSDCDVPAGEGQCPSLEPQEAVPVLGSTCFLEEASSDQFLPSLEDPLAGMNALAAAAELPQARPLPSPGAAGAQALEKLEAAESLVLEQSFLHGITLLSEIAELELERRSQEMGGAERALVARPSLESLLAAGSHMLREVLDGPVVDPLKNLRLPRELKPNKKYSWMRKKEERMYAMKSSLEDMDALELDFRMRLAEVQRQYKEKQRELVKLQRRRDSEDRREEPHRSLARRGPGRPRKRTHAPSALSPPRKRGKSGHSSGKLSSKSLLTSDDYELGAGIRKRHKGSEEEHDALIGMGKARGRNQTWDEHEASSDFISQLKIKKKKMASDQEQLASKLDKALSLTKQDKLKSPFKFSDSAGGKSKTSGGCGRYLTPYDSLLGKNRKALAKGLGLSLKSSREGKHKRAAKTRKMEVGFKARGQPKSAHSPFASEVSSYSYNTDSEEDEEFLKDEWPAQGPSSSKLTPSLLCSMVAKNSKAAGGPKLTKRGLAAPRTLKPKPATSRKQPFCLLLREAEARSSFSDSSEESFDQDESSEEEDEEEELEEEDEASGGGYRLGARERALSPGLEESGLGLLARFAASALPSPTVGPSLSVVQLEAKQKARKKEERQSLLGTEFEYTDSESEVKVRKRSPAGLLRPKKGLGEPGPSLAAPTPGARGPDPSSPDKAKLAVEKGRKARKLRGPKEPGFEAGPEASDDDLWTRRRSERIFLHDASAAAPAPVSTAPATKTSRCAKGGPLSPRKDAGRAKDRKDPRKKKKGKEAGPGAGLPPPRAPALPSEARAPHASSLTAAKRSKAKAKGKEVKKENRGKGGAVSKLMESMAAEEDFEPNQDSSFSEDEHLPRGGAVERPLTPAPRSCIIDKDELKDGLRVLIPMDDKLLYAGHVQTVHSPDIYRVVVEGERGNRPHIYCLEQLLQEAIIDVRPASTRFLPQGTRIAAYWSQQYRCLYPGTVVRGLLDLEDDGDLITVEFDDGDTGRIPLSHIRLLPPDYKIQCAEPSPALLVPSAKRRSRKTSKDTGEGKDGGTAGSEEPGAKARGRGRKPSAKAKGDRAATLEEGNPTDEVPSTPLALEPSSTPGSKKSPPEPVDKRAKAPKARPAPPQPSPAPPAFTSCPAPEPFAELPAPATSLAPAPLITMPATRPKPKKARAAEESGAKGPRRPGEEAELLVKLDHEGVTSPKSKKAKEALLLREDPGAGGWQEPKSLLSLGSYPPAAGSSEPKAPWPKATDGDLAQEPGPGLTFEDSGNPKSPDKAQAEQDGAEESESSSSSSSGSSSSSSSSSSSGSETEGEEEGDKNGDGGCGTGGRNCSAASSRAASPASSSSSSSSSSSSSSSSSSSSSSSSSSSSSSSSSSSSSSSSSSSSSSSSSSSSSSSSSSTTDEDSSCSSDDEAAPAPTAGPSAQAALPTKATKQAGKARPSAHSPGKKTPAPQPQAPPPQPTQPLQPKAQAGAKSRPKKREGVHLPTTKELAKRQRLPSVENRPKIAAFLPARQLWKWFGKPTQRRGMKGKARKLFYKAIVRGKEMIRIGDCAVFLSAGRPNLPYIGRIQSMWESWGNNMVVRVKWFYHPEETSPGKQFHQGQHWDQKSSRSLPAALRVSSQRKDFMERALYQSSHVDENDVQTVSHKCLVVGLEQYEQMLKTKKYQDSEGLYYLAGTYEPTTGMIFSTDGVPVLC
UniProt O43929: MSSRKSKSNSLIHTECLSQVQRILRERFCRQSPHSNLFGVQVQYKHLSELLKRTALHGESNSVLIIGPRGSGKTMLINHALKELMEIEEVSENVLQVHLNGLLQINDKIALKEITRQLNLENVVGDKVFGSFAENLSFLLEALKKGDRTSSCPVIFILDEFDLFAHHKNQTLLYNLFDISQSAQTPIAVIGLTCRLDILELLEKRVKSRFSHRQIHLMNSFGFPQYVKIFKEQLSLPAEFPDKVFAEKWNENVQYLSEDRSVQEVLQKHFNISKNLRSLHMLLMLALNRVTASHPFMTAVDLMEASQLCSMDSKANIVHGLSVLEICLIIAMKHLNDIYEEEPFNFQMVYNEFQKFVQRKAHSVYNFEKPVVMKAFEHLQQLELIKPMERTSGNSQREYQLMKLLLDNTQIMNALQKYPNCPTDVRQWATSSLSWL
UniProt O43670: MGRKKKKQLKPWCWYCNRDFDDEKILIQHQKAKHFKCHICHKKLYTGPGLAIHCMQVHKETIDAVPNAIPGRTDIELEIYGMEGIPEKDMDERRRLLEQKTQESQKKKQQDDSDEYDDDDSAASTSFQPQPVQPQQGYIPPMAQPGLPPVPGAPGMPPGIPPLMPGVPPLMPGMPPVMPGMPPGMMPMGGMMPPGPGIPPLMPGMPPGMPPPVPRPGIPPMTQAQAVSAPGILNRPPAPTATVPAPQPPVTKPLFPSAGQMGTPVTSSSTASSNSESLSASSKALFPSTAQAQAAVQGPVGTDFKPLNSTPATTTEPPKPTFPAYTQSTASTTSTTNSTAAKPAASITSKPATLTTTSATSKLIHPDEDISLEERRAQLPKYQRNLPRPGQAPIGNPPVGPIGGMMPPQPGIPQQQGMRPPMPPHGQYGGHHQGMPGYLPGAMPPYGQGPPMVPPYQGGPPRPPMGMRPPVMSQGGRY
UniProt O43255: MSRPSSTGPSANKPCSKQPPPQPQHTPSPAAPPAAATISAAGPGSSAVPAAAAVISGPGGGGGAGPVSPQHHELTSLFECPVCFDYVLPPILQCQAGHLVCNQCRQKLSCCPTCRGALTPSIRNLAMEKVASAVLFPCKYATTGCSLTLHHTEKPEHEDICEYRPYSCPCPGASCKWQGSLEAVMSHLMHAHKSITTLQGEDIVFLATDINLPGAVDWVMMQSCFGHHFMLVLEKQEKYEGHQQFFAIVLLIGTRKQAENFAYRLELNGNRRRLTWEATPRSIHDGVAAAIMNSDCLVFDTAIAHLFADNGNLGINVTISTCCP
UniProt O75251, whole entry: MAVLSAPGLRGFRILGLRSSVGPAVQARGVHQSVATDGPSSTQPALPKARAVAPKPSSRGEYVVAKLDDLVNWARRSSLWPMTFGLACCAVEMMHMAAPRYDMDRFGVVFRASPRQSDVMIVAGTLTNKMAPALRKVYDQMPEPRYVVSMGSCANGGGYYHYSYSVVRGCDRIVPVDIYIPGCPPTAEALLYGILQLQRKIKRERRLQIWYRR
UniProt O60506: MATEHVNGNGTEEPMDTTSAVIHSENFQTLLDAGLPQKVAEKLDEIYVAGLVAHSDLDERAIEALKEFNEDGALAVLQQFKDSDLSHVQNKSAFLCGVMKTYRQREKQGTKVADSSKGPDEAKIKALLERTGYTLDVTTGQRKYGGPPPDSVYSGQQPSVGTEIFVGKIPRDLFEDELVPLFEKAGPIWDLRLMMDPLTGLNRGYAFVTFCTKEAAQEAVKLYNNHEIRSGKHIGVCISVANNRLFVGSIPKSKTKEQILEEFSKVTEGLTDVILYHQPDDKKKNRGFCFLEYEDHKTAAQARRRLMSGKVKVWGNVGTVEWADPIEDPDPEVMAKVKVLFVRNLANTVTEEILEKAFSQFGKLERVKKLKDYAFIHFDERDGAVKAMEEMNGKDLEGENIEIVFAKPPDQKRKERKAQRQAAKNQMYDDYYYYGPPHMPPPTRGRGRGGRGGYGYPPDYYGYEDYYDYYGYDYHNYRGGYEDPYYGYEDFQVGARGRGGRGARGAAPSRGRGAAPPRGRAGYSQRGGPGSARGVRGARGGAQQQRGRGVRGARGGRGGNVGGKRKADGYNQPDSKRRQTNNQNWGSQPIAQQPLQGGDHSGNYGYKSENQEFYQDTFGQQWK
UniProt O60749: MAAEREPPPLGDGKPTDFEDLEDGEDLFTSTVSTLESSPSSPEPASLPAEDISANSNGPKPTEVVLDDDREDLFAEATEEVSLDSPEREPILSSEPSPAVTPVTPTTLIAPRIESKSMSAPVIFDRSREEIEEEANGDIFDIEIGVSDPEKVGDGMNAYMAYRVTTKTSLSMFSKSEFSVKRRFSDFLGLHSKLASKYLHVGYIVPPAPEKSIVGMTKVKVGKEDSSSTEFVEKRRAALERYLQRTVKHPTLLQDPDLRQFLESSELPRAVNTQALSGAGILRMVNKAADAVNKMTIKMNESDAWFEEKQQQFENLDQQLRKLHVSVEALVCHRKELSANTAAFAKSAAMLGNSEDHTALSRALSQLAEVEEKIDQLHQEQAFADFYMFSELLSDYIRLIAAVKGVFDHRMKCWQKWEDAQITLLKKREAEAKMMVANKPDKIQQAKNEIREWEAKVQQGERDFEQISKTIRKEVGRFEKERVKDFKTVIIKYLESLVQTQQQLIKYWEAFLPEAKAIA

These targets were tested with CN[C@@H]1C[C@H]2O[C@@](C)([C@@H]1OC)n1c3ccccc3c3c4c(c5c6ccccc6n2c5c31)C(=O)NC4 [staurosporine] (assay: log2 fold change of tryptic peptide abundance, ligand vs vehicle (limited proteolysis) (log2 ratio); higher = more trypsin-susceptible (destabilized)). Conditions: ligand concentration: 20 uM; sample: K562 cleared lysate; digestion: 4 min, 22 C (HT-PELSA RT4min, Orbitrap Astral).

| Target | log2 fold change |
| --- | --- |
| ACSL4 (peptide sequence: MMLSGGAPLSPQTHR, peptide start residue: 438) (UniProt O60488) | 0.211 |
| PRPSAP2 (peptide sequence: SVAAIHPSLEIPMLIPK, peptide start residue: 233) (UniProt O60256) | -0.0436 |
| UniProt O43422 (peptide sequence: INSGEEVLRK, peptide start residue: 209) | -0.622 |
| CCDC22 (peptide sequence: DQLALPWVPPHLR, peptide start residue: 136) (UniProt O60826) | 0.278 |
| GYG2 (peptide sequence: VVHFLGSMKPWNYK, peptide start residue: 243) (UniProt O15488) | 0.755 |
| SNAP91 (peptide sequence: FIQYLASR, peptide start residue: 93) (UniProt O60641) | 0.119 |
| PHACTR2 (peptide sequence: KLSLRPTVAELQAR, peptide start residue: 558) (UniProt O75167) | 0.285 |
| OPA1 (peptide sequence: ETIFSISK, peptide start residue: 416) (UniProt O60313) | -0.185 |
| TNRC18 (peptide sequence: LTPSLLCSMVAK, peptide start residue: 1756) (UniProt O15417) | -0.303 |
| DUSP11 (peptide sequence: YSWNVKPNASR, peptide start residue: 341) (UniProt O75319) | 0.25 |
| UniProt O43929 (peptide sequence: SNSLIHTECLSQVQR, peptide start residue: 8) | -0.102 |
| ZNF207 (peptide sequence: ILIQHQK, peptide start residue: 25) (UniProt O43670) | 0.421 |
| SYNGR2 (peptide sequence: MESGAYGAAK, peptide start residue: 1) (UniProt O43760) | -0.023 |
| NCOR1 (peptide sequence: LPTTRPTRPPPPLIPSSK, peptide start residue: 1024) (UniProt O75376) | 0.386 |
| UniProt O43709 (peptide sequence: GRRPEHGGPPELFYDETEAR, peptide start residue: 5) | -0.256 |
| SIAH2 (peptide sequence: LSCCPTCR, peptide start residue: 108) (UniProt O43255) | -0.605 |
| NDUFS7 (peptide sequence: KVYDQMPEPR, peptide start residue: 136) (UniProt O75251) | -0.181 |
| CDC40 (peptide sequence: NQGLTVFETGQK, peptide start residue: 162) (UniProt O60508) | 0.444 |
| SYNCRIP (peptide sequence: KLKDYAFIHFDER, peptide start residue: 369) (UniProt O60506) | -0.4 |
| MAST3 (peptide sequence: SSENVLDEEGGR, peptide start residue: 134) (UniProt O60307) | 0.322 |
| KPNA6 (peptide sequence: NNALNPEEMRR, peptide start residue: 19) (UniProt O60684) | -0.164 |
| PRMT3 (peptide sequence: ALSAEAALAR, peptide start residue: 169) (UniProt O60678) | 0.192 |
| SNX2 (peptide sequence: EVGRFEK, peptide start residue: 474) (UniProt O60749) | 0.263 |
| UniProt O43432 (peptide sequence: MSQGFHPERDPSDLKK, peptide start residue: 548) | 0.805 |
| SNX3 (peptide sequence: LKESTVRR, peptide start residue: 62) (UniProt O60493) | 1.17 |
| DNAJB6 (peptide sequence: SLTINGVADDDALAEER, peptide start residue: 226) (UniProt O75190) | -0.476 |
| ATP9B (peptide sequence: AAYYSAAGPRPGADR, peptide start residue: 23) (UniProt O43861) | -0.166 |
| PJA2 (peptide sequence: AVWPKPAGGYQTITGR, peptide start residue: 19) (UniProt O43164) | 0.369 |

Some of the entries above in a different format.
Target	log2 fold change
DUSP11 (peptide sequence: YSWNVKPNASR, peptide start residue: 341) (UniProt O75319)	0.25
UniProt O43929 (peptide sequence: SNSLIHTECLSQVQR, peptide start residue: 8)	-0.102
ZNF207 (peptide sequence: ILIQHQK, peptide start residue: 25) (UniProt O43670)	0.421
SYNGR2 (peptide sequence: MESGAYGAAK, peptide start residue: 1) (UniProt O43760)	-0.023
NCOR1 (peptide sequence: LPTTRPTRPPPPLIPSSK, peptide start residue: 1024) (UniProt O75376)	0.386
UniProt O43709 (peptide sequence: GRRPEHGGPPELFYDETEAR, peptide start residue: 5)	-0.256
SIAH2 (peptide sequence: LSCCPTCR, peptide start residue: 108) (UniProt O43255)	-0.605
NDUFS7 (peptide sequence: KVYDQMPEPR, peptide start residue: 136) (UniProt O75251)	-0.181
